# In publication PMC8670036:
# B1: Flag-tagged Tas (protein, UniProt P14353 1-300)
# chain: MDSYEKEESVASTSGIQDLQTLSELVGPENAGEGELTIAEEPEENPRRPRRYTKREVKCVSYHAYKEIEDKHPQHIKLQDWIPTPEEMSKSLCKRLILCGLYSAEKASEILRMPFTVSWEQSDTDPDCFIVSYTCIFCDAVIHDPMPIRWDPEVGIWVKYKPLRGIVGSAVFIMHKHQRNCSLVKPSTSCSEGPKPRPRHDPVLRCDMFEKHHKPRQKRPRRRSIDNESCASSSDTMANEPGSLCTNPLWNPGPLLSGLLEESSNLPNLEVHMSGGPFWEEVYGDSILGPPSGSGEHSVL
# Key:
# HA-Trim28-△PB = test: co-IP
# HA-Trim28-△RBCC = test: co-IP
binder,measurement,setting,value
B1,binding,HA-Trim28-△PB,binds
same,binding,HA-Trim28-△RBCC,no binding

# Results are given in words; binding and its absence hold for the method and conditions named. Binding seen in cells or lysates may run through a third protein. For some assays here: A result given as binding can be weak or reduced; the word gives no strength. Where a sequence is shown, tags or fusion partners need not be part of it.
